Source: PMC5992430
Results are given in words; binding and its absence hold for the method and conditions named. Binding seen in cells or lysates may run through a third protein. Some entries that bind do so weakly or less than the wild type.

Chains of the proteins cited; added tags and fusions are not shown. Residues count along the entry.
UniProt P48357, residues 22-839: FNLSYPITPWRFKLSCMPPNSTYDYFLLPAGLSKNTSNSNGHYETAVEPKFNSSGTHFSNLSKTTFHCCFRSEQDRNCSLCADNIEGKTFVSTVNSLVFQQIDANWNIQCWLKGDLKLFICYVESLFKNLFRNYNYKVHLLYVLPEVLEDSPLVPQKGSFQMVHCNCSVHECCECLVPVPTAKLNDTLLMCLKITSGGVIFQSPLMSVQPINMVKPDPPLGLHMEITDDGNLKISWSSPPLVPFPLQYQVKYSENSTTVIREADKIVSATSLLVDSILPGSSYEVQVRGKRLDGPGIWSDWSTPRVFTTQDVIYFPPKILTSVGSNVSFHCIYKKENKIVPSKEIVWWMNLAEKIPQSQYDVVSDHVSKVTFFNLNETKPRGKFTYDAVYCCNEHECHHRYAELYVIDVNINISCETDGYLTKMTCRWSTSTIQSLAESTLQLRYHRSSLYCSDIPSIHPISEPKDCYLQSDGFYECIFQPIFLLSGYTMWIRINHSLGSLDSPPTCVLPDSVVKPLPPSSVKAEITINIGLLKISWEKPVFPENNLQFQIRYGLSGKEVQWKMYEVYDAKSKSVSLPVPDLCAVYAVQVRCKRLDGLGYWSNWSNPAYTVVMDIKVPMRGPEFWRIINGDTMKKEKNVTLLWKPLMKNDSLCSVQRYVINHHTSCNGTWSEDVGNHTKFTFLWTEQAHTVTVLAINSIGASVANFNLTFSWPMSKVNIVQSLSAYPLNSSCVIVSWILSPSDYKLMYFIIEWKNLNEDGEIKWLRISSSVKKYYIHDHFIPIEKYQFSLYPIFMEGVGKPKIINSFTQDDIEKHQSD

Assays:
[1] = biological target: Soluble leptin receptor of human serum (human (endogenous in human serum)) (UniProt P48357); assay: co-IP; human serum immunoprecipitated with anti-Ob R or anti-CRP and protein A beads; SDS-PAGE and Western blot probed with anti-CRP or anti-sOb R, ECL
[2] = biological target: Soluble recombinant human leptin receptor (human) (UniProt P48357); assay: co-IP; 50 µl fresh human serum spiked with 50 or 100 ng leptin receptor and incubated for 30 min; leptin receptor immunoprecipitated; co-precipitated CRP estimated by ELISA; only the target purified

binding [1]: binds
binding [2]: binds
B1: C-reactive protein of human serum (protein, UniProt P02741 19-224)
chain: QTDMSRKAFVFPKESDTSYVSLKAPLTKPLKAFTVCLHFYTELSSTRGYSIFSYATKRQDNEILIFWSKDIGYSFTVGGSEILFEVPEVTVAPVHICTSWESASGIVEFWVDGKPRVRKSLKKGYTVGAEASIILGQEQDSFGGNFEGSQSLVGDIGNVNMWDFVLSPDEINTIYLGGPFSPNVLNWRALKYEVQGEVFTKPQLWP
